The target in this assay is GFP-epitope tagged BIN1V9 (non-neuronal isoform of Bridging integrator 1). Description: co-IP; cells expressing BIN1V1GFP or BIN1V9GFP without or with RIN3flag; immunoprecipitation with anti-GFP antibody, immunoblot with anti-BIN1 and anti-RIN3. For orientation: In western blotting, separated proteins are transferred to a membrane and probed.

Results are given in words; binding and its absence hold for the method and conditions named. Binding seen in cells or lysates may run through a third protein. Binding calls can cover weak binding; strength is not graded here. Tags and fused reporters may be left off the sequences shown.

B1: flag-epitope tagged RIN3 (Ras and Rab interactor 3) (protein, UniProt Q8TB24 1-985)
chain: MIRHAGAPARGDPTGPVPVVGKGEEEEEEDGMRLCLPANPKNCLPHRRGISILEKLIKTCPVWLQLSLGQAEVARILHRVVAGMFLVRRDSSSKQLVLCVHFPSLNESSAEVLEYTIKEEKSILYLEGSALVFEDIFRLIAFYCVSRDLLPFTLRLPQAILEASSFTDLETIANLGLGFWDSSLNPPQERGKPAEPPRDRAPGFPLVSSLRPTAHDANCACEIELSVGNDRLWFVNPIFIEDCSSALPTDQPPLGNCPARPLPPTSDATSPTSRWAPRRPPPPPPVLPLQPCSPAQPPVLPALAPAPACPLPTSPPVPAPHVTPHAPGPPDHPNQPPMMTCERLPCPTAGLGPLREEAMKPGAASSPLQQVPAPPLPAKKNLPTAPPRRRVSERVSLEDQSPGMAAEGDQLSLPPQGTSDGPEDTPRESTEQGQDTEVKASDPHSMPELPRTAKQPPVPPPRKKRISRQLASTLPAPLENAELCTQAMALETPTPGPPREGQSPASQAGTQHPPAQATAHSQSSPEFKGSLASLSDSLGVSVMATDQDSYSTSSTEEELEQFSSPSVKKKPSMILGKARHRLSFASFSSMFHAFLSNNRKLYKKVVELAQDKGSYFGSLVQDYKVYSLEMMARQTSSTEMLQEIRTMMTQLKSYLLQSTELKALVDPALHSEEELEAIVESALYKCVLKPLKEAINSCLHQIHSKDGSLQQLKENQLVILATTTTDLGVTTSVPEVPMMEKILQKFTSMHKAYSPEKKISILLKTCKLIYDSMALGNPGKPYGADDFLPVLMYVLARSNLTEMLLNVEYMMELMDPALQLGEGSYYLTTTYGALEHIKSYDKITVTRQLSVEVQDSIHRWERRRTLNKARASRSSVQDFICVSYLEPEQQARTLASRADTQAQALCAQCAEKFAVERPQAHRLFVLVDGRCFQLADDALPHCIKGYLLRSEPKRDFHFVYRPLDGGGGGGGGSPPCLVVREPNFL
Consider B1, for which the binding entry is listed as “binds”.

These data come from publication PMC8894474.
